Some of the results follow.
What was measured:
Test in all cases: log2 fold change, soluble protein after heating vs DMSO (PISA); higher = thermal stabilisation; K562 cells, 10 uM, 30 min; active = over 0.2 and 3.5 SD of the protein, either way, in both replicates (recomputed)
[1] = compound: CC1=C(C=C(C=C1)NC(=O)C2=CC(=CC=C2)C(C)(C)C#N)NC3=CC4=C(C=C3)N=CN(C4=O)C
How it was run: (§1)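 Soluble protein was defined as the supernatant after 21,000xg for 90 min. It came from K562 cells at 2×10^6 cells/mL given 10 μM compound for 30 min, heated in aliquots for 3 min across 48°C-58°C, pooled, and extracted in PBS with 0.5% NP-40 at 4°C, and was quantified by TMTpro 16plex LC-MS/MS with equalised channel sums. Thermal stability against control samples, from duplicates, is reported as log2 fold change.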

Chains of the proteins cited; added tags and fusions are not shown. Lines headed by an entry give the natural chain unless they say otherwise; changes in a name come on top.
UniProt Q6DN90: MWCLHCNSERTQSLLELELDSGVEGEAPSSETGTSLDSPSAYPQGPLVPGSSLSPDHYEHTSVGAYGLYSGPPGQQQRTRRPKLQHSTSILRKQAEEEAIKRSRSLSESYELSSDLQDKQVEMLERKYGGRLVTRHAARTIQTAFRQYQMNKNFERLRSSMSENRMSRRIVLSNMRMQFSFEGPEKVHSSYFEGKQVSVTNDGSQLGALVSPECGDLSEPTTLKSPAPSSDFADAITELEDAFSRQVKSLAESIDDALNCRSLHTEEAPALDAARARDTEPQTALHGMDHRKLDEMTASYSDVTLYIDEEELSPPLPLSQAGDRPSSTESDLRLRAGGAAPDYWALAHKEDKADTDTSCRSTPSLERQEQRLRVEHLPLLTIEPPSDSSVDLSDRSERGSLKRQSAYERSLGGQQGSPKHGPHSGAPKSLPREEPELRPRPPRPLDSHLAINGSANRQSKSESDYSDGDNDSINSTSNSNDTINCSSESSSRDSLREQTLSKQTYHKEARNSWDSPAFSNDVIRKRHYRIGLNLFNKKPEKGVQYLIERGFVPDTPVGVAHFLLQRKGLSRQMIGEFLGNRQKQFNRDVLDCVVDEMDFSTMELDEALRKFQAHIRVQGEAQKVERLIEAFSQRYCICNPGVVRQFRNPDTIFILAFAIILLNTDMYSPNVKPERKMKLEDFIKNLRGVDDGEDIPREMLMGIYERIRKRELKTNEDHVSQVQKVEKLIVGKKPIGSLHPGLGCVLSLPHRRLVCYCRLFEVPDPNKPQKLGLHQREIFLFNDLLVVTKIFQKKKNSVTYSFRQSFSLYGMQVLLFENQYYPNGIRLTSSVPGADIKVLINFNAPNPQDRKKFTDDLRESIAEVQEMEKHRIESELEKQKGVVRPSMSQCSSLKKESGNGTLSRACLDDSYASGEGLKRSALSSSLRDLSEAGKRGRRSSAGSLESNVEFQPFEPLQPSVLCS
UniProt P05556, whole entry, looked up: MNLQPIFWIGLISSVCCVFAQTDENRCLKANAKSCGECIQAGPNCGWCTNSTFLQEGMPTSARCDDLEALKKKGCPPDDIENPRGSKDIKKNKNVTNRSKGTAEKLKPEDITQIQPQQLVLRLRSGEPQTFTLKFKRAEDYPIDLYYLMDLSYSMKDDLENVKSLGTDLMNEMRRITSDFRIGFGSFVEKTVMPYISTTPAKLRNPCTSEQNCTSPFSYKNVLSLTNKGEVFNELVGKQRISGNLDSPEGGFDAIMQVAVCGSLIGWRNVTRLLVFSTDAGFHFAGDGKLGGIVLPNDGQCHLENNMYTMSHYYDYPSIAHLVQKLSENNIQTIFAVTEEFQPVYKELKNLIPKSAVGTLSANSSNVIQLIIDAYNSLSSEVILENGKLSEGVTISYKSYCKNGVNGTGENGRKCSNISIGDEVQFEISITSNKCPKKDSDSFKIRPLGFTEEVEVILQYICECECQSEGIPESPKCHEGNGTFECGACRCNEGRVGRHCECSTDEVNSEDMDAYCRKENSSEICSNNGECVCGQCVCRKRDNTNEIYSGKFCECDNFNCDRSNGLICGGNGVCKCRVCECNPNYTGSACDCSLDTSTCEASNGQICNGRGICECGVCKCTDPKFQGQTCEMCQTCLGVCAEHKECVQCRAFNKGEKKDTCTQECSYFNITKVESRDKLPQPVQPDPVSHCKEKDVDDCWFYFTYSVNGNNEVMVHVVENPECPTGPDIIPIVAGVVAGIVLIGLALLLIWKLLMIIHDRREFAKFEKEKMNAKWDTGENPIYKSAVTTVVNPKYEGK
UniProt Q9NV31: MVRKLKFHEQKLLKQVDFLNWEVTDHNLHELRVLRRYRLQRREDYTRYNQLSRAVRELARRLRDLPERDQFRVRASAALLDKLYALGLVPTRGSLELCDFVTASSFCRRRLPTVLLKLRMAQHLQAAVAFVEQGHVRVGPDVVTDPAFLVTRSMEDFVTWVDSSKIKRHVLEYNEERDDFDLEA
UniProt P19823: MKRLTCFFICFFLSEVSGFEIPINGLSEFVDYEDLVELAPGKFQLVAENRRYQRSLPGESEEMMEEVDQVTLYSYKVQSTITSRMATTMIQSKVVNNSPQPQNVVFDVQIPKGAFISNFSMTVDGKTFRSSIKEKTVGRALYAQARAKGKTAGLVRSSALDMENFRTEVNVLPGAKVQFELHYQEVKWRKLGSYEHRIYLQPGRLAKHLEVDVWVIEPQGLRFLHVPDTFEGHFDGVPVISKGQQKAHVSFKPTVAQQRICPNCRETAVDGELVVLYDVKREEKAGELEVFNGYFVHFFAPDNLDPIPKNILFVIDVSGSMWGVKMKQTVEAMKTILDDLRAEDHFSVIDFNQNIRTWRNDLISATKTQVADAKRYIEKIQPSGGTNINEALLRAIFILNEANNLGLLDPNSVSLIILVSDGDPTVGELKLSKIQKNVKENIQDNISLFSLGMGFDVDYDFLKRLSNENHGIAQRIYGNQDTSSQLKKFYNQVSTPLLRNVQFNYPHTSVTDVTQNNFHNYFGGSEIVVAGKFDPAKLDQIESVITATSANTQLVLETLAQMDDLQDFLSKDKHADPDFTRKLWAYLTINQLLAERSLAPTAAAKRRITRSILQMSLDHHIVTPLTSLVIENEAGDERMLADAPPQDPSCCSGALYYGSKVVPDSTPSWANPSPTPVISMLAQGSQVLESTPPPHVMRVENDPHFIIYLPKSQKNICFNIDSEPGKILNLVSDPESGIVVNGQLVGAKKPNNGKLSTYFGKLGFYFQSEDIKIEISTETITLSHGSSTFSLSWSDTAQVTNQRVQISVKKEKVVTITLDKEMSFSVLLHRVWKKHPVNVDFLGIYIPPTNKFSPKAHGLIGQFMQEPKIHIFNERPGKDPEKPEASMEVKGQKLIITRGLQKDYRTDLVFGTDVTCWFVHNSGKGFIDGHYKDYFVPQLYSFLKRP
UniProt P23677, whole entry, looked up: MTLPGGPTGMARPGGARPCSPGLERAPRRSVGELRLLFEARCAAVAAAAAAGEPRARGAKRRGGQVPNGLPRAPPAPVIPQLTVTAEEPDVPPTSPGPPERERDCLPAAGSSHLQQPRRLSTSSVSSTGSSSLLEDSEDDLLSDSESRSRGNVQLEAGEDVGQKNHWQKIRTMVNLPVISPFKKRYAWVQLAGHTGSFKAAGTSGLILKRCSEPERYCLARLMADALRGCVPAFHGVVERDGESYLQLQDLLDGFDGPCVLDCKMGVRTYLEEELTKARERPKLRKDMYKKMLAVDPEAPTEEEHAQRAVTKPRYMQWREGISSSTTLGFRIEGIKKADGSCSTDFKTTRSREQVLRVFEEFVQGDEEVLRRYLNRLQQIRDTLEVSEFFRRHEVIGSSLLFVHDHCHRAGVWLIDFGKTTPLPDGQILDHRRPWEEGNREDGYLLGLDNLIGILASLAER
UniProt O75874, whole entry, looked up: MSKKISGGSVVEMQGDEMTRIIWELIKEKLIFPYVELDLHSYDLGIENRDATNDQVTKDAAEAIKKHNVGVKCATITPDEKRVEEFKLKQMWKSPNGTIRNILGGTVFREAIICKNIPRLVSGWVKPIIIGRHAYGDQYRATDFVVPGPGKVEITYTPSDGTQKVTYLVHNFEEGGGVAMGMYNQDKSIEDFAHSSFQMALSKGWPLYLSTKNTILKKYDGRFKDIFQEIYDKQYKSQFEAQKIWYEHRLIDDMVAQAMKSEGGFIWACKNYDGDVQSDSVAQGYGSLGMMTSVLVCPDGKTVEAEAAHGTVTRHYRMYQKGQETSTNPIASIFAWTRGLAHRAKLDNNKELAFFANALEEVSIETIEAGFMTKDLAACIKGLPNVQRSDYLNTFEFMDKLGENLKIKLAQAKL
UniProt Q8WZA9: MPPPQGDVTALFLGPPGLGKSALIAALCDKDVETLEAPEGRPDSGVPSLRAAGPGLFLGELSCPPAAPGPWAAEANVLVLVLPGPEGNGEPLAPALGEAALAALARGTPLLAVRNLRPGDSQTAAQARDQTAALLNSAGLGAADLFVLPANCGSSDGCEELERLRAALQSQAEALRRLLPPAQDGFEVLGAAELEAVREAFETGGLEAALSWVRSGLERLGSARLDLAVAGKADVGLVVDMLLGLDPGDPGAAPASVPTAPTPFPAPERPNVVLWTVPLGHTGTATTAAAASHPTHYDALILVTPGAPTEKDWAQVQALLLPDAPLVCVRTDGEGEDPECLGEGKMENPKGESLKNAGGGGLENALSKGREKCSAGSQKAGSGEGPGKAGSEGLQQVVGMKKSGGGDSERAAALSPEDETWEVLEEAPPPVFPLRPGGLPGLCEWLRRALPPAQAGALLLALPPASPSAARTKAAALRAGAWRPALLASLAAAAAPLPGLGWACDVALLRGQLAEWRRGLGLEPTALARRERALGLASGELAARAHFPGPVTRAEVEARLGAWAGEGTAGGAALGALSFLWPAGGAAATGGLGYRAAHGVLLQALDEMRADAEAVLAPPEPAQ
UniProt Q13572: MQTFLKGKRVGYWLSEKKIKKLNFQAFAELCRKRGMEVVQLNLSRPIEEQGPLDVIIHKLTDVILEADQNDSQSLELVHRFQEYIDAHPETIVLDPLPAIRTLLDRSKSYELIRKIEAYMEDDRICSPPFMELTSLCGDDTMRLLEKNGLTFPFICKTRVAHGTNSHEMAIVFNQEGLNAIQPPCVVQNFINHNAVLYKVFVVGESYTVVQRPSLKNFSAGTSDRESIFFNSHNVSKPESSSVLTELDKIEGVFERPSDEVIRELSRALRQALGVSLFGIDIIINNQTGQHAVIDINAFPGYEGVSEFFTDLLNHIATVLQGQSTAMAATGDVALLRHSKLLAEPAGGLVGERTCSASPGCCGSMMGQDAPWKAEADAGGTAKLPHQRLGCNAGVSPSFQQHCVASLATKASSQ
UniProt O75054: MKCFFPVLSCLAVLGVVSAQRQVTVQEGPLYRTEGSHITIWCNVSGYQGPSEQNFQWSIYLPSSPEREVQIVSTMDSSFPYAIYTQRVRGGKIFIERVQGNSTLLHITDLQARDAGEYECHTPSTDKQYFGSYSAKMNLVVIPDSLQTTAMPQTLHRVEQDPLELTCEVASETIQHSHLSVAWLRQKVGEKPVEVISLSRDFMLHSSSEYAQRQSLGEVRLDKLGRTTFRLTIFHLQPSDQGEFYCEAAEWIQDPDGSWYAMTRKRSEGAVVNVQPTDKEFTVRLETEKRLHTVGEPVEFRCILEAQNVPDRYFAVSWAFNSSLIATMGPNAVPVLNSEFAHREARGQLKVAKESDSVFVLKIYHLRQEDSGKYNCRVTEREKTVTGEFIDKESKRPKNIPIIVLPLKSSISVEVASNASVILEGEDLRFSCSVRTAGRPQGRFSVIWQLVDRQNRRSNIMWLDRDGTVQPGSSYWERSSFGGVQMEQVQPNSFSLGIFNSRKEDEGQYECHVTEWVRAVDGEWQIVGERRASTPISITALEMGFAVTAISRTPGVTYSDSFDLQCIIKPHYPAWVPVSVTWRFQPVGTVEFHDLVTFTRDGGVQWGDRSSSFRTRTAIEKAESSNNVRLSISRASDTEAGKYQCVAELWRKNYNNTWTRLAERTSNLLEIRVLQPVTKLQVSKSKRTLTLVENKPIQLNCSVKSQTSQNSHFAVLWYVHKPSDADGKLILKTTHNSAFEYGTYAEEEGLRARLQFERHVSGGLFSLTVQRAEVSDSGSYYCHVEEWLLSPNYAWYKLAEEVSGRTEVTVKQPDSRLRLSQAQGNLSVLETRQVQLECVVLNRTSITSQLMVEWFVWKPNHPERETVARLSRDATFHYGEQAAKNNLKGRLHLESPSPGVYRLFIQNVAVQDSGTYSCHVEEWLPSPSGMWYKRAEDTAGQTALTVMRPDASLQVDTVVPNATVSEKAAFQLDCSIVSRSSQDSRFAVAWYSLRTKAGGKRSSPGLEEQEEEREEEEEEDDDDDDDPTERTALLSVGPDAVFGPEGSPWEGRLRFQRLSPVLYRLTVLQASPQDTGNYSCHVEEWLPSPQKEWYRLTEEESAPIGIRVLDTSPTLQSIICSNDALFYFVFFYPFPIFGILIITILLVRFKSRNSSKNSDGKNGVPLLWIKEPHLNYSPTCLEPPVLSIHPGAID
UniProt P51553: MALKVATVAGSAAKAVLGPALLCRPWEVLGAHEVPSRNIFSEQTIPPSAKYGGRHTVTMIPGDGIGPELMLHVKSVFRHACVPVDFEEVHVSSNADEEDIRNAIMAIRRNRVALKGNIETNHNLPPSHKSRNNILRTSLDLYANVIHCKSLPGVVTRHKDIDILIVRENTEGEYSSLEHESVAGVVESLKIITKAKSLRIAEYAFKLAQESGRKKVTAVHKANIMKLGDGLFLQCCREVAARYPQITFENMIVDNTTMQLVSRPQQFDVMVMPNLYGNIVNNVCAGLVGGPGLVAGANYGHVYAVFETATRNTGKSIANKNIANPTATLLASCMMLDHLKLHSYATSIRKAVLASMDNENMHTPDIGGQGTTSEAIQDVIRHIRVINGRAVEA
UniProt Q86U28: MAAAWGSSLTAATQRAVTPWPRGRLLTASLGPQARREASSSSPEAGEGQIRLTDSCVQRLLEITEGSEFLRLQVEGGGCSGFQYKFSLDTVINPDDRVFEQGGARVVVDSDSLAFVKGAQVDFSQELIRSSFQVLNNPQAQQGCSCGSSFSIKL

[2] = compound: CC1=C(C=C(C=C1)NC(=O)C2=CC(=CC=C2)N(C)C)NC(=O)C3=CC=C(C=C3)O
How it was run: as §1

[3] = compound: CC1=CC=C(C=C1)SC2=C3C=C(SC3=CN=C2)C(=O)N
How it was run: as §1

[4] = compound: CC1=NC(=CC=C1)C2=C(N=C(N2)C(C)(C)C)C3=CC4=NC=CN=C4C=C3
How it was run: as §1

Nexturastat A = compound: CCCCN(Cc1ccc(C(=O)NO)cc1)C(=O)Nc1ccccc1 [Nexturastat A]
How it was run: as §1

vemurafenib = compound: CCCS(=O)(=O)Nc1ccc(F)c(C(=O)c2c[nH]c3ncc(-c4ccc(Cl)cc4)cc23)c1F [vemurafenib]
How it was run: as §1

[5] = compound: CCCS(=O)(=O)Nc1ccc(F)c(C(=O)c2c[nH]c3ncc(Cl)cc23)c1F
How it was run: as §1

[6] = compound: CCCc1cc(C)[nH]c(=O)c1CNC(=O)c1cc(-c2ccnc(N3CCN(C)CC3)c2)cc2c1cnn2C(C)C
How it was run: as §1

givinostat = compound: CCN(CC)Cc1ccc2cc(COC(=O)Nc3ccc(C(=O)NO)cc3)ccc2c1 [givinostat]
How it was run: as §1

barasertib = compound: CCN(CCCOc1ccc2c(Nc3cc(CC(=O)Nc4cccc(F)c4)[nH]n3)ncnc2c1)CCOP(=O)(O)O [barasertib]
How it was run: as §1

[7] = compound: CC[C@@H]1C(=O)N(C)c2cnc(Nc3ccc(C(=O)NC4CCN(C)CC4)cc3OC)nc2N1C1CCCC1
How it was run: as §1

volasertib = compound: CC[C@@H]1C(=O)N(C)c2cnc(Nc3ccc(C(=O)N[C@H]4CC[C@H](N5CCN(CC6CC6)CC5)CC4)cc3OC)nc2N1C(C)C [volasertib]
How it was run: as §1

[8] = compound: CC[C@H](C)N1C=C(C2=C(C=C(C=C21)C3=CN=C(C=C3)N4CCNCC4)C(=O)NCC5=C(C=C(NC5=O)C)C)C
How it was run: as §1

epoxomicin = compound: CC[C@H](C)[C@@H](C(=O)N[C@@H]([C@@H](C)O)C(=O)N[C@@H](CC(C)C)C(=O)[C@]1(CO1)C)NC(=O)[C@H]([C@@H](C)CC)N(C)C(=O)C [epoxomicin]
How it was run: as §1

[9] = compound: CCn1c(C(=O)N(C2CC2)C2CC2)cc2c3c(ncn3C)c(Nc3cc(C)n(C)n3)nc21
How it was run: as §1

[10] = compound: CCn1cc(-c2ccnc3[nH]c(-c4cccc(CN(C)C)c4)cc23)c(-c2ccc(NC(=O)N(C)C)cc2)n1
How it was run: as §1

[11] = compound: CN(C)CC(=O)Nc1ccc2[nH]c(=O)c3ccccc3c2c1
How it was run: as §1

rosiglitazone = compound: CN(CCOC1=CC=C(C=C1)C[C@H]2C(=O)NC(=O)S2)C3=CC=CC=N3 (racemic) [rosiglitazone]
How it was run: as §1

[12] = compound: CN1C2=C(C3=C1C(=O)N(N=C3)CC4=CC(=CC=C4)N)SC(=C2)S(=O)C
How it was run: as §1

[13] = compound: CN1CCC(CNc2ccc3ncc(-c4cccc(OC(F)(F)F)c4)n3n2)CC1
How it was run: as §1

Measured: log2 fold change

ITPA (UniProt Q9BY32)
inactive: [1] 0.015 | [2] -0.014 | [3] 0.053 | [4] -0.012 | Nexturastat A 0.084 | vemurafenib -0.001 | [5] 0.049 | [6] -0.03 | givinostat -0.004 | barasertib 0.007 | [7] -0.013 | volasertib -0.08 | [8] 0.003 | epoxomicin 0.102 | [9] -0.023 | [10] -0.003 | [11] 0.024 | rosiglitazone 0.016 | [12] -0.072 | [13] -0.058

IQSEC1 (UniProt Q6DN90)
inactive: [1] -0.025

ITGB1 (UniProt P05556)
inactive: [1] -0.025 | [2] -0.022 | [3] 0.02 | [4] 0 | Nexturastat A -0.009 | vemurafenib -0.01 | [5] -0.022 | [6] 0.008 | givinostat -0.018 | barasertib 0.007 | [7] 0.025 | volasertib -0.007 | [8] -0.017 | epoxomicin 0.024 | [9] 0.008 | [10] -0.031 | [11] 0 | rosiglitazone -0.026 | [12] -0.068 | [13] 0.073

IMP3 (UniProt Q9NV31)
inactive: [1] -0.193 | [2] 0.639 | [3] -0.135 | [4] -0.388 | Nexturastat A 0.349 | vemurafenib -0.001 | [5] 0.058 | [6] 0.02 | givinostat 0.227 | barasertib 0.075 | [7] 0.06 | volasertib 0.156 | [8] -0.202 | epoxomicin 0.053 | [9] -0.263 | [10] -0.203 | [11] -0.05 | rosiglitazone 0.036 | [12] 0.224 | [13] 0.008

ITIH2 (UniProt P19823)
inactive: [1] -0.089 | [2] 0.458 | [3] 0.123 | [4] 0.093 | Nexturastat A -0.088 | vemurafenib 0.157 | [5] -0.091 | [6] -0.25 | givinostat -0.034 | barasertib -0.064 | [7] 0 | volasertib 0.107 | [8] -0.121 | epoxomicin -0.489 | [9] 0.04 | [10] 0 | [11] -0.072 | rosiglitazone -0.012 | [12] 0.301 | [13] 0.077

ITPKA (UniProt P23677)
inactive: [1] 0.164 | [2] 0.176 | [3] 0.055 | [4] 0.155 | Nexturastat A 0.166 | vemurafenib 0.017 | [5] -0.099 | [6] 0.079 | givinostat 0.52 | barasertib 0.332 | [7] 0.065 | volasertib -0.144 | [8] -0.441 | epoxomicin -0.085 | [9] -0.213 | [10] -0.216 | [11] 0.032 | rosiglitazone 0.253 | [12] 0.138 | [13] 0.033

INTS11 (UniProt Q5TA45)
inactive: [1] 0.036 | [2] 0.012 | [3] 0.003 | [4] 0.013 | Nexturastat A 0 | vemurafenib 0.038 | [5] 0.041 | [6] 0.004 | givinostat -0.027 | barasertib 0.01 | [7] -0.028 | volasertib -0.128 | [8] 0.05 | epoxomicin 0.051 | [9] -0.01 | [10] -0.015 | [11] 0.03 | rosiglitazone 0.016 | [12] -0.024 | [13] -0.012

INTS14 (UniProt Q96SY0)
inactive: [1] -0.003 | [2] -0.049 | [3] 0.035 | [4] 0.01 | Nexturastat A -0.07 | vemurafenib 0.063 | [5] 0.103 | [6] 0.056 | givinostat 0.009 | barasertib 0.007 | [7] -0.044 | volasertib -0.117 | [8] 0.048 | epoxomicin 0.031 | [9] -0.02 | [10] -0.029 | [11] 0.039 | rosiglitazone 0.023 | [12] -0.049 | [13] -0.061

IMPDH2 (UniProt P12268)
inactive: [1] -0.023 | [2] 0.025 | [3] -0.04 | [4] -0.02 | Nexturastat A 0.023 | vemurafenib -0.01 | [5] -0.046 | [6] 0.02 | givinostat 0.015 | barasertib -0.059 | [7] 0.036 | volasertib 0.237 | [8] -0.01 | epoxomicin -0.03 | [9] 0.014 | [10] 0.089 | [11] -0.034 | rosiglitazone -0.05 | [12] 0.08 | [13] 0.006

IDH1 (UniProt O75874)
inactive: [1] 0 | [2] 0.004 | [3] -0.014 | [4] 0.018 | Nexturastat A -0.06 | vemurafenib -0.012 | [5] -0.033 | [6] -0.049 | givinostat -0.012 | barasertib -0.003 | [7] 0.013 | volasertib 0.072 | [8] -0.037 | epoxomicin 0.037 | [9] 0.012 | [10] -0.03 | [11] -0.015 | rosiglitazone -0.002 | [12] -0.037 | [13] -0.045

IRGQ (UniProt Q8WZA9)
inactive: [1] 0.002 | [2] -0.053 | [3] 0.004 | [4] -0.038 | Nexturastat A 0.004 | vemurafenib -0.004 | [5] -0.006 | [6] -0.008 | givinostat 0.029 | barasertib 0.014 | [7] 0.027 | volasertib 0.021 | [8] 0.023 | epoxomicin 0.066 | [9] -0.008 | [10] -0.057 | [11] 0.008 | rosiglitazone 0.043 | [12] -0.009 | [13] 0.058

ITPK1 (UniProt Q13572)
inactive: [1] -0.045 | [2] -0.081 | [3] 0.04 | [4] 0.06 | Nexturastat A 0.005 | vemurafenib 0.025 | [5] -0.019 | [6] -0.032 | givinostat -0.018 | barasertib 0.049 | [7] 0.031 | volasertib 0.053 | [8] 0.012 | epoxomicin 0.011 | [9] -0.043 | [10] -0.158 | [11] 0.039 | rosiglitazone 0.067 | [12] -0.114 | [13] 0.029

IGSF3 (UniProt O75054)
inactive: [1] -0.004 | [2] 0.035 | [3] -0.004 | [4] -0.022 | Nexturastat A -0.024 | vemurafenib 0.029 | [5] 0 | [6] -0.016 | givinostat 0.017 | barasertib 0.028 | [7] 0.034 | volasertib -0.021 | [8] -0.027 | epoxomicin -0.009 | [9] -0.004 | [10] 0.003 | [11] 0.101 | rosiglitazone 0.03 | [12] -0.092 | [13] 0.141

INTS9 (UniProt Q9NV88)
inactive: [1] 0.031 | [2] -0.021 | [3] -0.023 | [4] 0.057 | Nexturastat A -0.051 | vemurafenib 0.001 | [5] 0.025 | [6] -0.078 | givinostat -0.008 | barasertib 0.002 | [7] -0.036 | volasertib -0.133 | [8] 0.035 | epoxomicin 0.037 | [9] -0.006 | [10] -0.046 | [11] -0.016 | rosiglitazone -0.005 | [12] -0.016 | [13] 0.024

IDH3G (UniProt P51553)
inactive: [1] -0.008 | [2] -0.004 | [3] -0.013 | [4] 0.026 | Nexturastat A -0.072 | vemurafenib 0.013 | [5] 0.029 | [6] -0.054 | givinostat -0.012 | barasertib 0.037 | [7] -0.008 | volasertib 0.029 | [8] 0.004 | epoxomicin 0.02 | [9] -0.006 | [10] -0.079 | [11] -0.017 | rosiglitazone -0.027 | [12] -0.059 | [13] 0.013

ISCA2 (UniProt Q86U28)
inactive: [1] -0.017 | [2] 0 | [3] -0.042 | [4] -0.088 | Nexturastat A -0.114 | vemurafenib 0.025 | [5] -0.008 | [6] -0.035 | givinostat -0.089 | barasertib 0.038 | [7] 0.011 | volasertib -0.051 | [8] 0.001 | epoxomicin 0.061 | [9] -0.008 | [10] -0.033 | [11] 0.025 | rosiglitazone 0.004 | [12] -0.096 | [13] -0.023

Taken from the entries so far (four entries):
IRGQ (UniProt Q8WZA9)
inactive: [1] 0.002 | [2] -0.053 | [3] 0.004 | [4] -0.038 | Nexturastat A 0.004 | vemurafenib -0.004 | [5] -0.006 | [6] -0.008 | givinostat 0.029 | barasertib 0.014 | [7] 0.027 | volasertib 0.021 | [8] 0.023 | epoxomicin 0.066 | [9] -0.008 | [10] -0.057 | [11] 0.008 | rosiglitazone 0.043 | [12] -0.009 | [13] 0.058

ITPK1 (UniProt Q13572)
inactive: [1] -0.045 | [2] -0.081 | [3] 0.04 | [4] 0.06 | Nexturastat A 0.005 | vemurafenib 0.025 | [5] -0.019 | [6] -0.032 | givinostat -0.018 | barasertib 0.049 | [7] 0.031 | volasertib 0.053 | [8] 0.012 | epoxomicin 0.011 | [9] -0.043 | [10] -0.158 | [11] 0.039 | rosiglitazone 0.067 | [12] -0.114 | [13] 0.029

IGSF3 (UniProt O75054)
inactive: [1] -0.004 | [2] 0.035 | [3] -0.004 | [4] -0.022 | Nexturastat A -0.024 | vemurafenib 0.029 | [5] 0 | [6] -0.016 | givinostat 0.017 | barasertib 0.028 | [7] 0.034 | volasertib -0.021 | [8] -0.027 | epoxomicin -0.009 | [9] -0.004 | [10] 0.003 | [11] 0.101 | rosiglitazone 0.03 | [12] -0.092 | [13] 0.141

INTS9 (UniProt Q9NV88)
inactive: [1] 0.031 | [2] -0.021 | [3] -0.023 | [4] 0.057 | Nexturastat A -0.051 | vemurafenib 0.001 | [5] 0.025 | [6] -0.078 | givinostat -0.008 | barasertib 0.002 | [7] -0.036 | volasertib -0.133 | [8] 0.035 | epoxomicin 0.037 | [9] -0.006 | [10] -0.046 | [11] -0.016 | rosiglitazone -0.005 | [12] -0.016 | [13] 0.024

Additional entries follow:

IQGAP1 (UniProt P46940)
inactive: [1] -0.003 | [2] -0.027 | [3] 0.006 | [4] 0.052 | Nexturastat A -0.004 | vemurafenib 0.045 | [5] 0.033 | [6] 0.032 | givinostat 0.021 | barasertib 0.047 | [7] -0.05 | volasertib -0.154 | [8] 0.08 | epoxomicin 0.041 | [9] -0.049 | [10] -0.092 | [11] 0.029 | rosiglitazone 0.065 | [12] -0.043 | [13] -0.136

— the supplement of paper PMC10849652
